Data taken from ChEMBL document CHEMBL3988442, “University of Dundee, Small-Polar-MMV Screening Library” (2021).

Chains of the proteins cited; added tags and fusions are not shown.
UniProt I6X8D2, whole entry: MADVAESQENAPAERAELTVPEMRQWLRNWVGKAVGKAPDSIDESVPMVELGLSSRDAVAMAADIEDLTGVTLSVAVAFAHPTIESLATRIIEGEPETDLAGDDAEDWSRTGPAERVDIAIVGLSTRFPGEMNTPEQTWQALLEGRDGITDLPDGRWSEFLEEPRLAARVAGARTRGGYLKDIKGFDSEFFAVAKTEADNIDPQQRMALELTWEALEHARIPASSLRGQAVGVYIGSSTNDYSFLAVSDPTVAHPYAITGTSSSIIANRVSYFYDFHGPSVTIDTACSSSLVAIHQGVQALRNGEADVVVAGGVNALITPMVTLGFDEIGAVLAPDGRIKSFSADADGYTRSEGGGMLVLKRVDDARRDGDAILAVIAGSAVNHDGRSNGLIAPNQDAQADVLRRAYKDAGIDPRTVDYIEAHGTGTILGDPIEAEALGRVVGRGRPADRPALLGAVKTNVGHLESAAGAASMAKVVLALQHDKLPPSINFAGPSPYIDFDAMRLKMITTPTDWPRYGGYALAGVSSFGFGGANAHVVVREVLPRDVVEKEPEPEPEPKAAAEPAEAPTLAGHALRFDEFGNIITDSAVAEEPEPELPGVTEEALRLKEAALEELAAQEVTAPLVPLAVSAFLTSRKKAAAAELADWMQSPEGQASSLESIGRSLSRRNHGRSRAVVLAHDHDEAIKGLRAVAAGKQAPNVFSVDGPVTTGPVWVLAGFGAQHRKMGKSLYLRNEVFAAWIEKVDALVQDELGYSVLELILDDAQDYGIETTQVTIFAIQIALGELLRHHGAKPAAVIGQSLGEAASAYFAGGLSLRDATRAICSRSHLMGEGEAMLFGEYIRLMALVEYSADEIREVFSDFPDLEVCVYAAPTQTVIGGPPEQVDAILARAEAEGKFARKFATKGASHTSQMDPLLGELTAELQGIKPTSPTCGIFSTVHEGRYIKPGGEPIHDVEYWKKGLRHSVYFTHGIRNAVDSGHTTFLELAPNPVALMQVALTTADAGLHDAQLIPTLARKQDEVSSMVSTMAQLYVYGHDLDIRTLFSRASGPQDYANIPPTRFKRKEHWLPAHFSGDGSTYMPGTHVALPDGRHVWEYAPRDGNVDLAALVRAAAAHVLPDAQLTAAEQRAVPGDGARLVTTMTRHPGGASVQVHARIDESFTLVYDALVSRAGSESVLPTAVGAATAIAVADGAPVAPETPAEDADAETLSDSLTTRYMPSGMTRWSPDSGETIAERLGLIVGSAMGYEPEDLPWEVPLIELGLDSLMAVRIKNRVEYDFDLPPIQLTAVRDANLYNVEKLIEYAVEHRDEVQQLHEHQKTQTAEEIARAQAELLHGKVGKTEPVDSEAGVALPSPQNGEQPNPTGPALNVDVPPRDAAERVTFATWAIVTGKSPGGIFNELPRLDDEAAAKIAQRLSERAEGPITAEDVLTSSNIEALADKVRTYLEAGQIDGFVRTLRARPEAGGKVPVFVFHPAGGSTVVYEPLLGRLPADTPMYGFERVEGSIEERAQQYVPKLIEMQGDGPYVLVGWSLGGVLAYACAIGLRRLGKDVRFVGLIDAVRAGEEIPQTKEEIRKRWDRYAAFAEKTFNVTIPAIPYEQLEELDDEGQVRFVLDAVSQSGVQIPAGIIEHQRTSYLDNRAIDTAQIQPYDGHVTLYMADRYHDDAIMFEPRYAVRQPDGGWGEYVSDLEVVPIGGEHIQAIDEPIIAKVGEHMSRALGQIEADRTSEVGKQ
UniProt P9WNZ1, whole entry: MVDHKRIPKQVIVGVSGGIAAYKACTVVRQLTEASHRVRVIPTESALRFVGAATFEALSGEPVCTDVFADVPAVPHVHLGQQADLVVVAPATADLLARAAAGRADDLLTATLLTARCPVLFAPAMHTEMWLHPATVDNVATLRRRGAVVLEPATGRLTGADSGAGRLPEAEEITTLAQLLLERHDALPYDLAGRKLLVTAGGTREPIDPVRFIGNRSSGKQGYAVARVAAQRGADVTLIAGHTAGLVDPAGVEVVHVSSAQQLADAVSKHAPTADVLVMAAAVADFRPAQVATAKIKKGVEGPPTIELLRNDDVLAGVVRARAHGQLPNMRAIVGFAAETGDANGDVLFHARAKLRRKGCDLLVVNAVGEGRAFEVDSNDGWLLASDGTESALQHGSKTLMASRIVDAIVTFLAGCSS
UniProt P9WFT3, whole entry: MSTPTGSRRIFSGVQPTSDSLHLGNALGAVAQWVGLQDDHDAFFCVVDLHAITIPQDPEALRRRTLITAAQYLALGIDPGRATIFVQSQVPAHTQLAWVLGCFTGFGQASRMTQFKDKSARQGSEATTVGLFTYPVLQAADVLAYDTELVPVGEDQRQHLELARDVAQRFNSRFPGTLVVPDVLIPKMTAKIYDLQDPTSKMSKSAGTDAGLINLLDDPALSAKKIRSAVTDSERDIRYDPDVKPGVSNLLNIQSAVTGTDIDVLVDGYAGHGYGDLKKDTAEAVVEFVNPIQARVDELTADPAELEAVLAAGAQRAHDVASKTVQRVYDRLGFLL

The filed quantity is “Percent Effect” (%).
The record does not define 0% and 100%; most values in the screen are far below 50% and negative numbers occur (in some assays of this library far below -100).
This is an unselected part of the compounds tested.
A dash means the value is not listed here; it may have been measured.

Pks13 thioesterase: 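Polyketide synthase Pks13, Mycobacterium tuberculosis (UniProt I6X8D2). Enzyme assay of the thioesterase domain of polyketide synthase 13; the read-out is not stated. Concentration: 30 µM. The record gives no direction; the compounds picked for IC50 retests had high values, so higher reads as stronger inhibition. Of about 67,000 compounds tested this way, about 300 (0.46%) reached 50% or more in at least one test.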
CoaBC: 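Coenzyme A biosynthesis protein CoaBC, Mycobacterium tuberculosis (UniProt P9WNZ1). Enzyme assay of CoaBC with a phosphate dye (Biomol Green) read at 650 nm. Compounds at 30 µM. Direction is inferred from only a few compounds that gave an IC50; most scored high, so higher reads as stronger inhibition. Most strong results did not repeat in a second test. Of about 67,000 compounds tested this way, about 40 (0.06%) reached 50% or more in at least one test.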
Leishmania in macrophages: 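Cell assay of Leishmania donovani living inside macrophages; the read-out is not stated. Concentration: 30 µM. The record gives no direction; compounds that gave an IC50 in retests scored well above the rest, so higher reads as stronger inhibition. Size under these conditions: about 69,000 compounds, about 1,000 of them at 50% or above in at least one test.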
MtTrpRS: 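Tryptophan-tRNA ligase, Mycobacterium tuberculosis (UniProt P9WFT3). Enzyme assay of tryptophanyl-tRNA synthetase; the read-out is not stated. Tested at 10 µM. Direction is not recorded; retested compounds ran higher, which suggests that high means inhibition. Size under these conditions: about 65,000 compounds, about 64 of them at 50% or above in at least one test.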

CC(C)[C@@H](N)C(=O)NCc1cccnc1N1CCc2ccccc2C1 gave Pks13 thioesterase: -18%; CoaBC: 5.533%; Leishmania in macrophages: 25.42%; MtTrpRS: -3.791%. CC(NCc1cnc(C2CCC2)s1)c1cccc(-n2cccn2)c1 (centres undefined) gave Pks13 thioesterase: 37.37%; CoaBC: 7.739%; Leishmania in macrophages: 5.658%; MtTrpRS: 9.019%. [H][C@@]12CN(C(=O)CC(F)(F)F)C[C@]1([H])C(=O)N(Cc1csc(C)n1)C2 gave Leishmania in macrophages: 33.85%. With COc1ccc(Br)cc1SCCS(C)(=O)=O the screen gave Pks13 thioesterase: -6.901%; CoaBC: -0.6734%; Leishmania in macrophages: 12.69%; MtTrpRS: -0.5161%. With CCn1ncc2c1CCCC2NCc1ccc(OC)c(C)c1 (centres undefined) the screen gave Pks13 thioesterase: -33.75%; CoaBC: -4.37%; Leishmania in macrophages: 24.54%; MtTrpRS: -1.967%. Result for Cc1nc(CN2CCn3cc(CNC(=O)C4CCC4)nc3C2)cs1.O=C(O)C(F)(F)F was Leishmania in macrophages: 35.08%. With OCCOc1ccc(NCc2cccc3cccnc23)cn1 the screen gave Pks13 thioesterase: 20.76%; CoaBC: -1.951%; Leishmania in macrophages: -39.65%; MtTrpRS: 15.11%.

O=C(CCCc1ccccn1)N1CCCC1c1noc(C2CC2)n1 (centres undefined) read Pks13 thioesterase: 0.8079%; CoaBC: -3.106%; Leishmania in macrophages: 10.29%; MtTrpRS: -5.159%. Result for COc1ccc(CC(=O)N2C[C@@H]3COC[C@]3(CN(C)C)C2)cc1 was Pks13 thioesterase: -3.13%; CoaBC: -1.673%; MtTrpRS: -0.09588%. Cc1c(C(=O)O)cnn1-c1ccc(-c2nc(C(C)(C)C)no2)cn1 read Pks13 thioesterase: -15.35%; CoaBC: -14.39%; Leishmania in macrophages: 15.96%; MtTrpRS: 0.4619%. O=c1[nH]c(N2CC(O)C2)nc2c1cnn2-c1ccccc1 gave CoaBC: 6.612%; Leishmania in macrophages: 27.64%; MtTrpRS: -2.918%. With Cn1ncc2c(N3CC(N4CCCCC4)C3)nc(C3CCCC3)nc21 the screen gave Pks13 thioesterase: -43.04%; CoaBC: 0.1631%; Leishmania in macrophages: 1.635%; MtTrpRS: -0.241%. With Fc1cccc(CN2CCC(c3noc(-c4ccccn4)n3)CC2)c1F the screen gave Pks13 thioesterase: 13.4%; CoaBC: 1.632%; Leishmania in macrophages: 31.96%; MtTrpRS: 2.42%. For O=C(CNC(=O)C1CC1)NCC1CCCC1 the result was Pks13 thioesterase: -29.75%; CoaBC: -7.923%; Leishmania in macrophages: 27.22%; MtTrpRS: -0.8227%.

Cc1ccc(CN2CCC3(CCCC(=O)N3)CC2)s1.O=C(O)C(F)(F)F read Leishmania in macrophages: 5.38%. CCc1nnc2n1CCN(Cc1ccc3c(c1)OCCO3)C2 read Pks13 thioesterase: -13.62%; CoaBC: 3.035%; Leishmania in macrophages: -29.37%; MtTrpRS: 1.846%. Result for COc1ncccc1CNC(=O)c1ccc(C)[nH]c1=O was Pks13 thioesterase: -21.13%; CoaBC: 0.2632%; Leishmania in macrophages: -6.44%; MtTrpRS: -1.604%. COc1ccc(OC)c(Sc2ncccc2C(=O)N(C)CCC#N)c1 read Pks13 thioesterase: -12.82%; CoaBC: 0%; Leishmania in macrophages: 9.481%; MtTrpRS: -1.298%. Result for CN1C(=O)C2(CCNCC2)c2cc(F)ccc21 was Pks13 thioesterase: -11.77%; CoaBC: 2.956%; MtTrpRS: -10.38%. For Cc1nc(C)n(C2CCCN(C(=O)CCc3ccncc3)C2)n1 (centres undefined) the result was Pks13 thioesterase: -5.236%; CoaBC: 8.075%; Leishmania in macrophages: 3.191%; MtTrpRS: -1.876%. Cl.O=C(Cc1ccc(F)cc1)N1CCN(CC(O)C2CC2)CC1 (centres undefined) gave Leishmania in macrophages: 11.99%.

Result for O=C(N[C@H]1CCCC[C@@H]1O)c1ccc(-c2nc3ccccc3[nH]2)cc1 was Pks13 thioesterase: 28.51%; CoaBC: 1.699%; Leishmania in macrophages: 17.38%. Cc1cc(F)c(S(=O)(=O)NCC(C)(C)N)cc1F read Pks13 thioesterase: -1.879%; CoaBC: 2.67%; MtTrpRS: 1.728%. Cc1ncc(C(=O)N2CCC(C(=O)NC3CCCC3)C2)c(C)n1 (centres undefined) gave Pks13 thioesterase: 8.275%; CoaBC: 2.466%; Leishmania in macrophages: 8.048%; MtTrpRS: -2.902%. Result for O=C(CCc1ccc(C(F)(F)F)cc1)N1CCCS1(=O)=O was Pks13 thioesterase: 6.561%; CoaBC: 4.365%; Leishmania in macrophages: 5.944%; MtTrpRS: -6.734%. With CC(C)n1nc2c(cc1=O)CN(Cc1nc3ccccc3o1)CC2 the screen gave Pks13 thioesterase: -31.84%; CoaBC: 6.128%; Leishmania in macrophages: -20.11%; MtTrpRS: 15.62%. For CSC(C)C(=O)N(C)CC(=O)Nc1ccc(Br)cn1 (centres undefined) the result was Pks13 thioesterase: -10.02%; CoaBC: 2.35%; Leishmania in macrophages: 7.508%; MtTrpRS: -4.827%. With CN(CC1CCN(CCO)CC1)CC(O)c1ccc(F)cc1F (centres undefined) the screen gave Pks13 thioesterase: -33.47%; CoaBC: -15.6%; Leishmania in macrophages: 16.44%; MtTrpRS: -8.497%.

COc1ccccc1NC(=O)c1cnc(C2CCN(C(C)=O)C2)nc1C (centres undefined) read Pks13 thioesterase: -0.3673%; CoaBC: 4.843%; Leishmania in macrophages: 1.437%; MtTrpRS: 3.329%. [H][C@@]12COC[C@]1([H])[C@H](NC(=O)c1cccn1C)CN2S(C)(=O)=O read Leishmania in macrophages: 19.74%. Result for NC(=O)Cn1cc(NC(=O)N2CCCC(O)C2)cn1 (centres undefined) was Pks13 thioesterase: -17.31%; CoaBC: -0.5115%; Leishmania in macrophages: -36.01%; MtTrpRS: -2.912%. For O=C(c1cnc[nH]1)N1CCC(Oc2cccnc2)CC1 the result was Pks13 thioesterase: -13.32%; CoaBC: 0.3628%; Leishmania in macrophages: 3.815%; MtTrpRS: -2.388%.

2 of the entries, repeated:

structure,Pks13 thioesterase,CoaBC,Leishmania in macrophages,MtTrpRS
Cc1cc(F)c(S(=O)(=O)NCC(C)(C)N)cc1F,-1.879,2.67,-,1.728
CN1C(=O)C2(CCNCC2)c2cc(F)ccc21,-11.77,2.956,-,-10.38